Source: patent US20030143731A1, “Use of heterologous transcription factors in gene therapy” (ARIAD Gene Therapeutics, Inc., priority 1995, published 2003)
For at least one compound, name, drawing or mass did not settle the structure.

What was measured:
[1] = test system: SEAP target gene in stably transfected HT1080 cells; assay: Rapamycin-dependent SEAP production in stably transfected cell clone; format: cell-based, human; details: stable clone, 7 units to 90,000 units
Excerpt: We generated stable cell lines by sequential transfection of a SEAP target gene and expression vectors for ZFHD1-3FKBP and 1FRB-p65, respectively. […] From this pool, we characterized several individual clones, many of which produced high levels of SEAP in response to rapamycin. […] In an attempt to rigorously quantitate background SEAP production and induction ratio in this clone, we performed a second set of assays in which the length of the SEAP assay was increased by a factor of approximately 50 to detect any SEAP activity in untreated cells. Under these conditions, mock transfected cells produced 47 arbitrary fluorescence units, while the transfected clone produced 54 units in the absence of rapamycin and over 90,000 units at 100 nM rapamycin. […]
To simplify the task of stable transfection, we used a bicistronic expression vector that directs the production of both ZFHD1-3FKBP and 1FRB-p65 through the use of an internal ribosome entry sequence (IRES). […] All 12 clones analyzed were inducible and had little or no basal activity. […]
HT20-6 cells, which contain the pLH-ZHWT×12-IL2-SEAP reporter gene, ZFHD1-3FKBP DNA binding domain and 1FRB-p65(361-550) activation domain stably integrated, were generated by first infecting HT1080L cells with SMTN-ZFHD1-3FKBP-packaged retrovirus and selecting in medium containing […] G418. […] Eight positive clones were analyzed by addition of rapamycin. […]

[2] = test system: hGH reporter gene in transplanted transfected HT1080 cells; assay: Rapamycin-dependent production of hGH in mice bearing transfected HT1080 cells; format: in vivo; details: for serum hGH response to rapamycin dose: male nu/nu mice, i.v. rapamycin 0.01-10.0 mg/kg, blood 17 hours after dosing
Method: To prepare transiently transfected HT1080 cells for injection into mice (See below), cells in 100 mm dishes (2×10^6 cells/dish) were transfected by calcium phosphate precipitation for 16 hours (Gatz, C., Kaiser, A. & Wendenburg, R. , 1991,Mol. Gen. Genet. 227, 229-237) with the following DNAs: […] of ZHWT×12-CMV-hGH, […] pCGNN-ZFHD1-3FKBP, […] pCGNN-1FRB-p65(361-550) and […] pUC118. Transfected cells were rinsed 2 times with phosphate buffered saline (PBS) and given fresh medium for 5 hours. To harvest for injection, cells were removed from the dish in Hepes Buffered Saline Solution containing 10 mM EDTA, washed with PBS/0.1% BSA/0.1% glucose and resuspended in the same at a concentration of 2×10^7 cells/ml.
In Vivo Methods: Animals, husbandry, and general procedures. Male nu/nu mice were obtained from Charles River Laboratories (Wilmington, Mass.) and allowed to acclimate for five days prior to experimentation. They were housed under sterile conditions, were allowed free access to sterile food and sterile water throughout the entire experiment, and were handled with sterile techniques throughout.
To transplant transiently transfected cells into mice, 2×10^6 transfected HT1080 cells, were suspended in […] PBS/0.1% BSA/0.1% glucose buffer, and administered into four intramuscular sites (approximately […] per site) on the haunches and flanks of the animals. Control mice received equivalent volume injections of buffer alone.
Rapamycin was formulated for in vivo administration by dissolution in equal parts of N,N-dimethylacetamide and a 9:1 (v:v) mixture of polyethylene glycol (average molecular weight of 400) and polyoxyethylene sorbitan monooleate. Concentrations of rapamycin, in the completed formulation, were sufficient to allow for in vivo administration of the appropriate dose in a 2.0 ml/kg injection volume. The accuracy of the dosing solutions was confirmed by HPLC analysis prior to intravenous administration into the tail veins. Some control mice, bearing no transfected HT1080 cells, received 10.0 mg/kg rapamycin. In addition, other control mice, bearing transfected cells, received only the rapamycin vehicle.
Blood was collected by either anesthetizing or sacrificing mice via CO2 inhalation. Anesthetized mice were used to collect […] of blood by cardiac puncture. The mice were revived and allowed to recover for subsequent blood collections. Sacrificed mice were immediately exsanguinated. Blood samples were allowed to clot for 24 hours, at 4° C., and sera were collected following centrifugation at 1000×g for 15 minutes. Serum hGH was measured by the Boehringer Mannheim non-isotopic sandwich ELISA (Cat No. 1 585 878). […] Recommended assay instructions were followed. Absorbance was read at 405 nm with a 490 nm reference wavelength on a Molecular Devices microtiter plate reader.
hGH expression In Vivo. For the assessment of dose-dependent rapamycin-induced stimulation of hGH expression, rapamycin was administered to mice approximately one hour following injection of HT1080 cells. Rapamycin doses were either 0.01, 0.03, 0.1, 0.3, 1.0, 3.0, or 10.0 mg/kg. Seventeen hours following rapamycin administration, the mice were sacrificed for blood collection.
To address the time course of in vivo hGH expression, mice received 10.0 mg/kg of rapamycin one hour following injection of the cells. Mice were sacrificed at 4, 8, 17, 24, and 42 hours following rapamycin administration.
The ability of rapamycin to induce sustained expression of hGH from transplanted HT1080 cells was tested by repeatedly administering rapamycin. Mice were administered transfected HT1080 cells as described above. Approximately one hour following injection of the cells, mice received the first of five intravenous 10.0 mg/kg doses of rapamycin. The four remaining doses were given under anesthesia, immediately subsequent to blood collection, at 16, 32, 48, and 64 hours. […]

## CO[C@H]1C[C@@H]2CC[C@@H](C)[C@@](O)(O2)C(=O)C(=O)N2CCCC[C@H]2C(=O)O[C@H]([C@H](C)C[C@@H]2CC[C@@H](O)[C@H](OC)C2)CC(=O)[C@H](C)/C=C(\C)[C@@H](O)[C@@H](OC)C(=O)[C@H](C)C[C@H](C)/C=C/C=C/C=C/1C [rapamycin]
[1]
  induction ratio: greater than four
[2]
  serum hGH response to rapamycin dose: dose-dependent increase in serum hGH
[2]; listed as Rapamycin
  serum hGH response to rapamycin dose: dose-responsive production of hGH
[2]; multiple doses at 16-hour intervals
  circulating hGH on repeated doses of rapamycin: relatively stable levels of circulating hGH
[2]; second dose at 42 hr
  serum hGH after a second dose of rapamycin: second peak of serum hGH
[2]; single i.v. dose 10.0 mg/kg
  time of peak serum hGH after rapamycin treatment: eight
  time to first observed serum hGH after rapamycin treatment: four
[2]; single i.v. dose 10.0 mg/kg, at eight hours
  peak serum hGH relative to ELISA sensitivity limit: over one hundred
